# From PubChem BioAssay AID2685 (National Center for Advancing Translational Sciences (NCATS), 2010)
# The list shows a part of the results. The main result of the screen is listed elsewhere. These columns were measured beside it and carry no call. Compounds called inactive in the main read-out are mostly missing here. Words in brackets tell the shape of the fitted curve; partial curves, single points and poor fits give uncertain potencies.
# Experiment: qHTS Assay for Lipid Storage Modulators in Drosophila S3 Cells;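 as to cell number change: cells counted by Cell Tracker Red CMTPX staining in the red channel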
# Conditions: BODIPY lipid droplet fluorescence, 18-24 h; for cell number change: measured here: cell count max response, cells fed with added oleic acid
# In short: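 Drosophila S3 cells got compounds at several concentrations plus oleic acid (400 uM solution). Laser-scanning cytometry with 488 nm excitation read lipid droplets at 500-530 nm and cells at 575-640 nm. Percent activity was relative to 20 uM Triacsin C.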
# [1] = measured here: cell number channel AC50, cells fed with added oleic acid
# [2] = measured here: lipid fluorescence (Fed channel) AC50, cells fed with added oleic acid
Compound,cell number change [%],AC50 [1],AC50 [2]
Cn1ncc([N+](=O)[O-])c1C(=O)NC1CCCCC1,16.4,,
Cc1ccc2nc(-c3cccs3)oc(=O)c2c1,45.4,"4.11 µM [rising, partial curve, poor fit]",
COc1ccccc1O,-12.4,,"0.259 µM [falling, full curve, poor fit]"
CC(C)(C)c1ccc(C(=O)N/N=C/c2ccc(OCCCF)cc2)cc1,-17.2,,
O=C(c1cc(COc2c(F)cccc2F)on1)N1CCC(c2ccncc2)CC1,-21.8,,"29.1 µM [falling, single point]"
CCN(C1CCCCC1)S(=O)(=O)c1ccc(S(=O)(=O)NCCc2ccncc2)cc1,-7.22,,"6.51 µM [rising, single point]"
O=C(C1CCCC1)N1CCN(S(=O)(=O)c2ccc(F)c(F)c2F)CC1,-4.76,"2.06 µM [rising, partial curve, poor fit]",
CCOC(=O)C1CC2CC(C1)CN(C(=O)C1CCCCC1)C2 (centres undefined),-16,,
CCOCCCNCC(=O)N1CCN(S(=O)(=O)c2ccc(C)cc2)CC1,-91.8,"29.1 µM [falling, single point]","29.1 µM [falling, partial curve]"
C=CCS/C(=N\n1cnc2ccccc2c1=O)N(CC)CC,0.378,,"6.51 µM [falling, single point]"
COc1ccc(NS(=O)(=O)c2ccc(S(=O)(=O)N3CCCC3)cc2)cc1Cl,78.3,,"0.116 µM [falling, full curve, poor fit]"
COCc1nnc(NC(=O)C2CCN(C(=O)c3ccco3)CC2)s1,21.4,"0.291 µM [rising, full curve, poor fit]",
CC(=O)c1ccc(S(=O)(=O)N(C)CCCC(=O)NCc2ccc3c(c2)OCO3)cc1,-4.06,"0.00461 µM [falling, full curve, poor fit]","6.51 µM [falling, single point]"
Fc1ccc(C2=Nn3c(Cc4ccccc4F)nnc3SC2)cc1,16.6,,"20.6 µM [rising, single point]"
Cc1c(Br)ccc(NC(=O)c2ccccc2[N+](=O)[O-])c1C,-35.8,,
CN(C)c1ccc(/C=N/c2cc(-c3ccccc3)nn2-c2ccccc2)cc1,83,"1.64 µM [rising, full curve]","2.06 µM [rising, partial curve]"
O=C(O)CNS(=O)(=O)c1ccc2c(c1)Cc1cc(S(=O)(=O)NCC(=O)O)ccc1-2,27,,
O=C(COc1ccc([N+](=O)[O-])cc1)Nc1cccc2nsnc12,35.6,"29.1 µM [rising, single point]",
CCOc1ccc(NC(N)=O)cc1OCC,41.4,"11.6 µM [rising, partial curve, poor fit]","0.092 µM [falling, full curve, poor fit]"
CC(C)c1ccc[n+](-c2nc([O-])sc2C=O)c1,-4.56,,"0.58 µM [falling, single point]"
Cc1ccc(S(=O)(=O)N2[C@@H](c3ccccc3F)C(C(=O)O)=CC[C@H]2c2cccc(Cl)c2)cc1,31.4,"0.13 µM [rising, full curve, poor fit]","7.31 µM [rising, partial curve, poor fit]"
C=CCNc1ncnc2c1[nH]c1ccc(C)cc12,-104,"18.4 µM [falling, single point]","29.1 µM [falling, single point]"
CCOCCn1c(=NC(=O)c2cc(Cl)sc2Cl)sc2cc(S(N)(=O)=O)ccc21,14.2,"3.26 µM [rising, single point]","2.31 µM [rising, partial curve]"
CCOc1ccc(Cn2c3ccc(OC)cc3c3nc4ccccc4nc32)cc1,1.88,,"20.6 µM [rising, single point]"
COC(=O)c1ccc(CNC(=O)c2ccc(S(=O)(=O)N(C)c3ccccc3OC)cc2)cc1,-18.8,,"29.1 µM [falling, single point]"
COc1ccc(C2NC(=O)NC(C)=C2[N+](=O)[O-])cc1 (centres undefined),5.96,,"29.1 µM [rising, single point]"
COc1cc2ccccc2cc1C(=O)Nc1ccc(S(=O)(=O)Nc2cc(C)on2)cc1,-9.36,"3.26 µM [rising, single point]","4.11 µM [rising, partial curve]"
CCOc1ccc(C(=O)Nc2cccc(-c3ccc4nncn4n3)c2)cc1,9.64,,"0.082 µM [rising, single point]"

# 2 of these compounds, set out differently.
Compound | cell number change [%] | AC50 [1] | AC50 [2]
O=C(c1cc(COc2c(F)cccc2F)on1)N1CCC(c2ccncc2)CC1 | -21.8 |  | 29.1 µM [falling, single point]
CCOc1ccc(Cn2c3ccc(OC)cc3c3nc4ccccc4nc32)cc1 | 1.88 |  | 20.6 µM [rising, single point]
